These are yes or no findings as the source states them, for the method shown. Binding seen in cells or lysates may run through a third protein. Binding can be weak; no strength is given.
Molecular target: HA::Rab11
Experiment: co-IP

B1: IER3IP1 (in HCT116 or HEK293 cells) (protein, UniProt Q9Y5U9 1-82)
chain: MAFTLYSLLQAALLCVNAIAVLHEERFLKNIGWGTDQGIGGFGEEPGIKSQLMNLIRSVRTVMRVPLIIVNSIAIVLLLLFG
binding: binds
